Test [1] is described as follows: Drosophila SCA1 whole organism dose response for polyglutamine toxicity reduction (AID 1595). As to conditions: Drosophila SCA1 polyglutamine model, at 1 µM, stronger effect = higher value.
A further test is described as follows: PubChem AID 1597. As to conditions: Drosophila SCA1 polyglutamine model, at 1 µM, stronger effect = higher value.

“And” between values parts separate entries of the source, which are not always exact repeats. Identical values can stand only once. The list shows a part of the results. Entries with a potency or affinity are not part of this list. Where no call is shown, the source marks the result inconclusive.

Consider `C=NC(C(=O)NC1C(=O)N2C1SC(C)(C)C2C(=O)O)c1ccccc1` (configuration not stated), for which the suppression of toxicity (in test [1]; in “PubChem AID 1597”) was 2.86 each time.
On to `Cc1cc2cc3c(C)cc(=O)oc3c(C)c2o1`, for which the values for the suppression of toxicity (in test [1]; in the test “PubChem AID 1597”) were 0 and 12.1, respectively.
In the same order, the values of `CN(C)c1nc(N(C)C)nc(N(C)C)n1` are 8.57 and 12.9.
With `N.N.O=C(O)C1(C(=O)O)CCC1.[Pt]`, the suppression of toxicity worked out at 0 in test [1] and 0.715 in the test “PubChem AID 1597”.
The like results for `COc1ccccc1OCC(O)COC(N)=O` (configuration not stated) were, in that order, 1.43 and 0.
Consider `CCCCNc1ccc(C(=O)OCCN(C)C)cc1`, for which the suppression of toxicity was determined as 5.71 in test [1] and 2.15 in the test “PubChem AID 1597”.
With `Clc1ccc(C(c2ccccc2Cl)C(Cl)Cl)cc1` (configuration not stated), the suppression of toxicity amounted to 0 in test [1] and 4.29 in “PubChem AID 1597”.
The like results for `C=CCc1ccc(O)c(OC)c1` were, in that order, 5.71 and 12.9.
The like results for `CN(C)CCOC(c1ccccc1)c1ccccc1` were, in that order, 1.43 and 6.42.
Turning to `NC(Cn1ccc(=O)c(O)c1)C(=O)O` (configuration not stated), the suppression of toxicity (in test [1]; in the test “PubChem AID 1597”) was 0 throughout.
Take `CC(C)C(=O)Nc1ccc([N+](=O)[O-])c(C(F)(F)F)c1`: the results for the suppression of toxicity (in test [1]; in the test “PubChem AID 1597”) were 0 and 12.1, respectively.
On to `CCn1cc(C(=O)O)c(=O)c2cnc(N3CCCC3)nc21`, for which the suppression of toxicity in test [1] is 0; in the test “PubChem AID 1597”, 1.43.
In the same order, the values of `NCC1CCC(C(=O)O)CC1` (configuration not stated) are 5.71 and 5.71.
Take `Oc1c(Cl)cc(Cl)c2cccnc12`: the suppression of toxicity was determined as 0 in test [1] and 5.71 in the test “PubChem AID 1597”.
`CCCC(=O)Nc1ncnc2c1ncn2C1O[C@@H]2COP(=O)(O)O[C@H]2[C@H]1OC(=O)CCC` (some centres not stated): the suppression of toxicity (in test [1]; in the test “PubChem AID 1597”) was 4.29 in each case.
Take `COc1cc2ccc(=O)oc2cc1O`: the suppression of toxicity (in test [1]; in the test “PubChem AID 1597”) was 0 throughout.
Consider `Nc1ncnc2c1ncn2C1O[C@H](COP(=O)(O)O)[C@@H](O)[C@H]1O` (some centres not stated), for which the values for the suppression of toxicity (in test [1]; in the test “PubChem AID 1597”) were 0 and 2.15, respectively.
In the case of `COc1cccc(OC)c1C(=O)N[C@@H]1C(=O)N2[C@@H]1SC(C)(C)[C@@H]2C(=O)O`, the suppression of toxicity in test [1] turned out to be 2.85; in “PubChem AID 1597”, 4.29.
As to `COc1ccc(C2C(=O)c3ccccc3C2=O)cc1`, the suppression of toxicity in test [1] turned out to be 2.86; in the test “PubChem AID 1597” it was 7.14.
As to `CC(C)(C)NCC(O)c1ccc(O)c(CO)c1` (configuration not stated), the figures for the suppression of toxicity (in test [1]; in “PubChem AID 1597”) were 0 and 0.715, respectively.
The like results for `N=C(N)N` were, in that order, 0 and 3.58.
In the same order, the values of `NCCc1cnc[nH]1` are 0 and 4.29.
On to `NC12CC3CC(CC(C3)C1)C2`, for which the values for the suppression of toxicity (in test [1]; in the test “PubChem AID 1597”) were 0 and 6.42, respectively.
For `O=C(O)C1CCCNC1` (configuration not stated), the suppression of toxicity in test [1] stood at 7.14; in the test “PubChem AID 1597”, 9.29.
As for `CC[C@H](C)C(=O)O[C@H]1C[C@@H](C)C=C2C=C[C@H](C)[C@H](CC[C@@H]3C[C@@H](O)CC(=O)O3)[C@H]21`, the suppression of toxicity in test [1] stood at 0; in the test “PubChem AID 1597” it was 0.715.
Turning to `O=C(O)c1ccccc1Nc1cccc(C(F)(F)F)c1`, the suppression of toxicity came out at 0 in test [1] and 5 in “PubChem AID 1597”.
On to `Nc1cc(-c2ccncc2)c[nH]c1=O`, for which the values for the suppression of toxicity (in test [1]; in “PubChem AID 1597”) were 5.71 and 6.43, respectively.
The like results for `CN=C(NC#N)NCCSCc1nc[nH]c1C` were, in that order, 0 and 0.715.
On to `Nc1c(Br)cc(Br)cc1CNC1CCC(O)CC1` (configuration not stated), for which the results for the suppression of toxicity (in test [1]; in “PubChem AID 1597”) were 5.71 and 7.14, respectively.
Regarding `Cc1ccc(C(=O)C(C)CN2CCCCC2)cc1` (configuration not stated), the suppression of toxicity in test [1] was determined as 1.45; in “PubChem AID 1597”, 2.88.
In the case of `CC[C@H]1OC(=O)[C@H](C)[C@@H](O[C@H]2C[C@@](C)(OC)[C@@H](O)[C@H](C)O2)[C@H](C)[C@@H](O[C@@H]2O[C@H](C)C[C@H](N(C)C)[C@H]2O)[C@](C)(O)C[C@@H](C)C(=O)[C@H](C)[C@@H](O)[C@]1(C)O`, the suppression of toxicity in test [1] was 1.43 and 4.29; in the test “PubChem AID 1597”, 7.14 and 2.86 and 2.15.
Turning to `CN(N=O)C(=O)N[C@@H]1[C@@H](O)[C@H](O)[C@@H](CO)O[C@@H]1O`, the results for the suppression of toxicity (in test [1]; in the test “PubChem AID 1597”) were 0 and 5.71, respectively.
In the same order, the values of `CC[C@@]1(O)C[C@H](OC2CC(N(C)C)C(OC3CC(O)C(OC4CCC(=O)C(C)O4)C(C)O3)C(C)O2)c2c(cc3c(c2O)C(=O)c2c(O)cccc2C3=O)[C@H]1C(=O)OC` (some centres not stated) are 0 and 1.43.
As to `COc1cc(CNC(=O)CCCC/C=C/C(C)C)ccc1O`, the suppression of toxicity in test [1] is 1.43; in “PubChem AID 1597”, 12.9.
For the compound `OCc1ccccc1O[C@@H]1O[C@H](CO)[C@@H](O)[C@H](O)[C@H]1O`, the values for the suppression of toxicity (in test [1]; in “PubChem AID 1597”) were 5.71 and 10, respectively.
In the case of `O=c1ccn([C@@H]2O[C@H](COP(=O)(O)OP(=O)(O)OP(=O)(O)O)[C@@H](O)[C@H]2O)c(=O)[nH]1`, the values for the suppression of toxicity (in test [1]; in the test “PubChem AID 1597”) were 4.29 and 5.71, respectively.
Take `NC(N)=NC(=O)c1nc(Cl)c(N)nc1N`: the figures for the suppression of toxicity (in test [1]; in “PubChem AID 1597”) were 1.43 and 7.14, respectively.
With `CC(C)Oc1ccc2c(=O)cc(-c3ccccc3)oc2c1`, the values for the suppression of toxicity (in test [1]; in “PubChem AID 1597”) were 8.57 and 6.43, respectively.
With `C#CCN(C)Cc1ccccc1`, the results for the suppression of toxicity (in test [1]; in “PubChem AID 1597”) were 7.14 and 13.6, respectively.
In the same order, the values of `CCC1(c2ccccc2)C(=O)NCNC1=O` are 4.3 and 6.42.
Regarding `CCOC(=O)[C@H](CCc1ccccc1)N[C@@H](C)C(=O)N1Cc2ccccc2C[C@H]1C(=O)O`, the suppression of toxicity in test [1] came out at 1.43; in the test “PubChem AID 1597”, 2.15.
With `C=Cc1c(C)c2cc3[nH]c(cc4nc(cc5nc(cc1[nH]2)C(C)=C5CCC(=O)O)C(CCC(=O)O)=C4C)c(C)c3C=C`, the values for the suppression of toxicity (in test [1]; in the test “PubChem AID 1597”) were 0 and 1.43, respectively.
As to `C[C@]12C=CC(=O)C=C1CCC1C2C(=O)C[C@@]2(C)C1CC[C@]2(O)C(=O)CO` (some centres not stated), the suppression of toxicity in test [1] worked out at 0; in the test “PubChem AID 1597”, 2.15.
With `CN1CC(=O)N=C1N`, the suppression of toxicity in test [1] turned out to be 7.14; in the test “PubChem AID 1597”, 8.57.
In the same order, the values of `NS(=O)(=O)c1cc2c(cc1C(F)(F)F)NC(Cc1ccccc1)NS2(=O)=O` (configuration not stated) are 7.14 and 7.14.
In the same order, the values of `Cc1ccc(C(C)C)cc2c(C)ccc1-2` are 0 and 0.

Source of the values: PubChem BioAssay.
